Assay [1] concerns the target Promyelocytic leukemia protein (PML) (human (endogenous in DLD1 and HCT116)) (UniProt P29590). In words: co-IP; HCT116 and DLD1 cells transfected with pcDNA3.1 or pcDNA3.1-PCID2; CytoBuster lysate, 300 ug precleared lysate, protein G PLUS-Agarose overnight at 4 °C; IP with anti-PCID2 or anti-PML antibody, western blot.
The target of assay [2] is β-catenin (human (endogenous in DLD1 and HCT116)) (UniProt P35222). In words: co-IP; total protein of DLD1-vector, DLD1-PCID2, HCT116-shNC and HCT116-shPCID2 cells; IP with CTNNB1 antibody and protein G PLUS-Agarose overnight at 4 °C; western blot for PML.
The target in assay [3] is PCI domain containing 2 (PCID2) (human) (UniProt Q5JVF3). In words: co-IP; HCT116 and DLD1 cells transfected with pcDNA3.1 or pcDNA3.1-PCID2; CytoBuster lysate, 300 ug precleared lysate, protein G PLUS-Agarose overnight at 4 °C; IP with anti-PCID2 or anti-PML antibody, western blot. Background: In western blotting, separated proteins are transferred to a membrane and probed.

Sequences of proteins named here, by UniProt entry; tags and fusion partners are left off.
UniProt P29590: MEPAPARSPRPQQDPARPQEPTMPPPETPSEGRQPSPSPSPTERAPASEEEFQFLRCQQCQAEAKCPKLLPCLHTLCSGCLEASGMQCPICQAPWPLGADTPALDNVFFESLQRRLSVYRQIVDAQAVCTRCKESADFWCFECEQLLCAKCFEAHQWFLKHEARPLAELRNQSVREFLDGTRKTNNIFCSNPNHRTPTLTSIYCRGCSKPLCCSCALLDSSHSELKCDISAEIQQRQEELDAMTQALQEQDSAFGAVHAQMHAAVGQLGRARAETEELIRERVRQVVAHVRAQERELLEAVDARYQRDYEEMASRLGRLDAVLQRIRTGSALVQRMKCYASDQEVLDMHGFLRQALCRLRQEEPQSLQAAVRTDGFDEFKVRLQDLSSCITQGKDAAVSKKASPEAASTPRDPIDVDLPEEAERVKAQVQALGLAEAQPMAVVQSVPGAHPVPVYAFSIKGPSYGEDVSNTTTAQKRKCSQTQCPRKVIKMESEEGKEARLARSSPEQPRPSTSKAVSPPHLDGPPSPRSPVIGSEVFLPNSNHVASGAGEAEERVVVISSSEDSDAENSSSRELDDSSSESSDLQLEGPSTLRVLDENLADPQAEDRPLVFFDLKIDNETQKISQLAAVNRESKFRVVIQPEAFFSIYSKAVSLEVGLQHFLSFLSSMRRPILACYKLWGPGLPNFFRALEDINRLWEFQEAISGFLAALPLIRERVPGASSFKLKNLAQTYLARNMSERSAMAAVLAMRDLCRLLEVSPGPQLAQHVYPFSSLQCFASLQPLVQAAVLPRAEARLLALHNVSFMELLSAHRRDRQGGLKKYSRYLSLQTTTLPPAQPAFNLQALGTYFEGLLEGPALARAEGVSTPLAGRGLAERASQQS
UniProt P35222: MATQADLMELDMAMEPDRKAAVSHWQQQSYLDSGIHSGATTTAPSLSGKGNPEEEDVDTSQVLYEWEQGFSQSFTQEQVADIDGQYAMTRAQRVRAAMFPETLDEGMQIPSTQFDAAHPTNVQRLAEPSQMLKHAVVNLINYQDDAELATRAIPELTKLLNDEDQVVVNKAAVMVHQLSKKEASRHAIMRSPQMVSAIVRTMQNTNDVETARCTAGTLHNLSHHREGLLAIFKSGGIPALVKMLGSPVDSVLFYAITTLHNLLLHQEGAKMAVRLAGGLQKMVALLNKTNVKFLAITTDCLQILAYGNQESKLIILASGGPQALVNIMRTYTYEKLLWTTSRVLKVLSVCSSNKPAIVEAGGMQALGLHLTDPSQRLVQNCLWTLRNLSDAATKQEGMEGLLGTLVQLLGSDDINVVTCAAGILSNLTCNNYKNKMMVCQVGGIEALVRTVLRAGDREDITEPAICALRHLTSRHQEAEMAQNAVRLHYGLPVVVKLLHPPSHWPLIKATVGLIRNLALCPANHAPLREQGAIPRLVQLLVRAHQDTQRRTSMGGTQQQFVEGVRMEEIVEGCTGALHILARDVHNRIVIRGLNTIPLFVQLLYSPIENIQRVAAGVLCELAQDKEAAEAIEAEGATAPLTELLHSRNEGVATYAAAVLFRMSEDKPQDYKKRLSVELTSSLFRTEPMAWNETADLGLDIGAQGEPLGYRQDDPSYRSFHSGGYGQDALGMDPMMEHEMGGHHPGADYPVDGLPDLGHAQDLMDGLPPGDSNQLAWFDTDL
UniProt Q5JVF3: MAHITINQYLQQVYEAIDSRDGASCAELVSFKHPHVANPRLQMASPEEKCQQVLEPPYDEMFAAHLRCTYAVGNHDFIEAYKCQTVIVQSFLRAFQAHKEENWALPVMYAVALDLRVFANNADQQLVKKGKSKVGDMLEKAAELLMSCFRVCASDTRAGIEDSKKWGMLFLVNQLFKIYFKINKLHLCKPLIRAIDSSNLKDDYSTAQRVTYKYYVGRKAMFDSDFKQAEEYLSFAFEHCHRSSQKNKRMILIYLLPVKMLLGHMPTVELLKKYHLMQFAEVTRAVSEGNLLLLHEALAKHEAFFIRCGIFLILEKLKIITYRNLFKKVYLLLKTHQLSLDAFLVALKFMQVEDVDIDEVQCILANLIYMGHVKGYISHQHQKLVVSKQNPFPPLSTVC

Results are given in words; binding and its absence hold for the method and conditions named. In cells and extracts the contact can be indirect. Some binding calls cover weakened binding; strength is not graded here.

In the case of “PCI domain containing 2 (PCID2) (from UniProt Q5JVF3 1-399)”, the binding entry in assay [1] is “binds”. In the case of “Promyelocytic leukemia protein (PML) (from UniProt P29590 1-882)”, the binding result in assay [2] and in assay [3] was “binds” each time.

Source of the values: paper PMC8660639.
